From patent EP4574843A1
These are yes or no findings as the source states them, for the method shown.

B1: PRO3697, scFv (VL-linker-VH) 69-06-G04-sc05_(VL_A67G_S68G; VH_T101S_L146K) (scFv)
scFv: AFQLTQSPSSLSASVGDRVTITCQASQSIGTYLAWYQQKPGKPPKLLIYRGGTLASGVPSRFSGSGSGTDFTLTISSLQPEDFATYYCQSYDSSNTFGTGTKVTVLGGGGGSGGGGSGGGGSGGGGSQEQLVESGGGLVQPGRSLRLSCAASGFDLSADYMCWVRQAPGKGLEWIACIYIDDDNTYYATWAKGRFTISKDNSKNTVYLQMNSLRAEDSAVYFCARGYGVYTGAITYFTLWGQGTLVKVSS
B2: PRO3744, scFv (VL-linker-VH) 68-18-E11-sc07_(VL_A67G_S68G_T141C; VH_G51C_T101S_T146K) (scFv)
scFv: DVQMTQSPSSLSASVGDRVTITCQASQSIGSNLAWYQQKPGKPPKLLIYKGGTLESGVPSRFSGSGSGTDFTLTISSLQPEDFATYYCQSTAGSSRSGNYGYVFGCGTKVTVLGGGGGSGGGGSGGGGSGGGGSQQLVESGGGLVQPGGSLRLSCAASGFSFTNNYYMCWVRQAPGKCLEWIACMLVGAWGNTYYASWANGRFTISKDNSKNTVYLQMNSLRAEDSAVYFCARARDYTWTLGGDPETSGFNLWGQGTLVKVSS
B3: PRO3696, scFv (VL-linker-VH) 69-01-E02-sc06_(VL_A67G_S68G; VH_T101S_L146K) (scFv)
scFv: DVQMTQSPSSLSASVGDRVTITCQASQSIGLNLAWYQQKPGKPPKLLIYAGGYLASGVSSRFSGSGSGTDFTLTISSLQPEDFATYYCQSTYDGSSFVFAFGTGTKVTVLGGGGGSGGGGSGGGGSGGGGSQEQLVESGGGLVQPGGSLRLSCAASGFSFSSSSYMCWVRQAPGKGLEWIACMVTGSSDDTDYASWAKGRFTISKDNSKNTVYLQMNSLRAEDSAVYFCARAGSAPLWGQGTLVKVSS

What follows are binders tested against recombinant cynomolgus LILRB2 (cynomolgus (Macaca fascicularis)) (assay: SPR, LILRB2 immobilised, scFv as analyte).

binding, no binding (tested: 10 nM):
B1
B2
B3
